# Results: article PMC11358013
# Chains of the proteins cited; added tags and fusions are not shown. Chains listed by the source or under a name are the forms on record and can include a tag or linker.
# human FANCD2 + human FANCI, one chain, as listed by the source, chain 2 of 2: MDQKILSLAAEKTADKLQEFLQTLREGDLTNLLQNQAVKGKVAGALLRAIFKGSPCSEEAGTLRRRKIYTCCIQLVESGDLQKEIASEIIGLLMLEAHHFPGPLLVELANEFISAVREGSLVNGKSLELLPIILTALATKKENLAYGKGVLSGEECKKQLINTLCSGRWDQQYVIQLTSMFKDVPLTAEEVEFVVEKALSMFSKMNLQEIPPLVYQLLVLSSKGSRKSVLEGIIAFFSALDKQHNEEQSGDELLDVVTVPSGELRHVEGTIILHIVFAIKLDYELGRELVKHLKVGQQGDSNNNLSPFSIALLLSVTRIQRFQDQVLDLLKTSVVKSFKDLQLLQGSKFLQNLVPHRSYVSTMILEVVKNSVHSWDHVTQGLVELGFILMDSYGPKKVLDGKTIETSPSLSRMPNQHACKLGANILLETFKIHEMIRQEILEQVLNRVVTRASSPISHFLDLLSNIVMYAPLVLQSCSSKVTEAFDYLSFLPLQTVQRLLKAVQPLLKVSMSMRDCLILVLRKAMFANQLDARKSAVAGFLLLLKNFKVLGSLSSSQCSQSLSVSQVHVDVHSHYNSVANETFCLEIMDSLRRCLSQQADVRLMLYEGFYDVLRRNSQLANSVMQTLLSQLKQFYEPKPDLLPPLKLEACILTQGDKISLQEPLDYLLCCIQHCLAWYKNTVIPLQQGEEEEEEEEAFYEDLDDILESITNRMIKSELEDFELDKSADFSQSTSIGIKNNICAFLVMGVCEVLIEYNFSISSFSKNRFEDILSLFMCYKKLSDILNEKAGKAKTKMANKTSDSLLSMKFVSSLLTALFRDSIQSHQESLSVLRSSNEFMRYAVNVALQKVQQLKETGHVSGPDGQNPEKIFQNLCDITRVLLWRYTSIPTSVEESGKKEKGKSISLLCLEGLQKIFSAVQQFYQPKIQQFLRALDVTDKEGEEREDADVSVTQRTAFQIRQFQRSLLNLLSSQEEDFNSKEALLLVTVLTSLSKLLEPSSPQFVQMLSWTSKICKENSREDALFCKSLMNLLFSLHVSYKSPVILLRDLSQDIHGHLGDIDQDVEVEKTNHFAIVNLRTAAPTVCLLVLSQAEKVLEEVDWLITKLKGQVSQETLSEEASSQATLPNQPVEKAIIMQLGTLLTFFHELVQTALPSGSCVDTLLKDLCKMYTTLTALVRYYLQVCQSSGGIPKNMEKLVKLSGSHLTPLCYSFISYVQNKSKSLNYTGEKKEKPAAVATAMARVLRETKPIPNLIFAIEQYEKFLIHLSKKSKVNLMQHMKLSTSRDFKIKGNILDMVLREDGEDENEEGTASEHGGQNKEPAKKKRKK
# human FANCD2 + human FANCI, one chain, as listed by the source, chain 1 of 2: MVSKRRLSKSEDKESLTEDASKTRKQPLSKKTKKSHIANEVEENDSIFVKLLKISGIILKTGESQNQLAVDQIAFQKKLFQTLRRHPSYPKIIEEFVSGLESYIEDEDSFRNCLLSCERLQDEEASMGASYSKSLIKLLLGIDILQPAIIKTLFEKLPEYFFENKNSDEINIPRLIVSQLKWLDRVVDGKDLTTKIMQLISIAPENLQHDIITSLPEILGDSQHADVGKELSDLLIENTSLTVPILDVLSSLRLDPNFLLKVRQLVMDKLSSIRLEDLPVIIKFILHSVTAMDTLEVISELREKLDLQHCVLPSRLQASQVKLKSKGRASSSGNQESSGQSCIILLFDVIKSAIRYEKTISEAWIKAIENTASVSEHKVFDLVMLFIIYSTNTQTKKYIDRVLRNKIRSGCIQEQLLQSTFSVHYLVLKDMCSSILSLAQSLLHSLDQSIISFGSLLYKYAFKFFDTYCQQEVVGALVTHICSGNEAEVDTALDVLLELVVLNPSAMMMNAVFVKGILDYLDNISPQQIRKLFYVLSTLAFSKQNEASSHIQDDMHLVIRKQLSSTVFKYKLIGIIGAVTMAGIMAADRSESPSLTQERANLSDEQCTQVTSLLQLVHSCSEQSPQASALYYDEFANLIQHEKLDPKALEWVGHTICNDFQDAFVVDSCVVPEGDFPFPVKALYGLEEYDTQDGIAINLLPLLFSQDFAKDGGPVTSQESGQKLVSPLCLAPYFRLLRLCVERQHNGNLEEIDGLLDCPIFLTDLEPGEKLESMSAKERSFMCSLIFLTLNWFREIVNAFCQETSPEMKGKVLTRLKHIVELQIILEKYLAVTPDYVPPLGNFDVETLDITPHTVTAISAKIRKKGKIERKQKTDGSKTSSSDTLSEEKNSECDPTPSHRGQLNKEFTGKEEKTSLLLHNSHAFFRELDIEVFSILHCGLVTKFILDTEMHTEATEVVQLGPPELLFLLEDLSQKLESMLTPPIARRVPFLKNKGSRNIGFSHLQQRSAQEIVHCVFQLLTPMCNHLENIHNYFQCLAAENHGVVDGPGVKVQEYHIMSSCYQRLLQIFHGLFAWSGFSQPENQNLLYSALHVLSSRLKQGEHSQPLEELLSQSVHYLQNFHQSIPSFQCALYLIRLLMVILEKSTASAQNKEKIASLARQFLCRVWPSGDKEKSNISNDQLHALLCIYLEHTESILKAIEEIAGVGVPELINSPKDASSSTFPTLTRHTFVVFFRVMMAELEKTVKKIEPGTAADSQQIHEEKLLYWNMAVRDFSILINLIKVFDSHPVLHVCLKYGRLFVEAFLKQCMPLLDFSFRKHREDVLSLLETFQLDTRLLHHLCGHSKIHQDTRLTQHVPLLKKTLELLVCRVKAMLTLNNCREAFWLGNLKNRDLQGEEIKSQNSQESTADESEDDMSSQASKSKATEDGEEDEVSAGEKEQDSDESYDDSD
# For at least one entry, the source does not settle the construct or the ends of the probe.
# Experiments:
# [1] = tested on: human FANCD2 + human FANCI; experiment: cryo-EM; details: human D2-I closes on 44 bp dsDNA, switchSENSE: 20 mM HEPES pH 8.0, 75 mM NaCl, 1 mM TCEP, 25 C, cryo-EM and single-molecule: 20 mM HEPES pH 7.5, 75 mM NaCl, recombinant protein, protein details: tag cleaved (3C),tag cleaved (3C)
# FANCD2 WT + FANCI WT = experiment: cryo-EM; details: 3.7 A, sliding state, switchSENSE: 20 mM HEPES pH 8.0, 75 mM NaCl, 1 mM TCEP, 25 C, cryo-EM and single-molecule: 20 mM HEPES pH 7.5, 75 mM NaCl, recombinant protein
sequence,measurement,setting,value
ATCGATGTCTCTAGACAGCTGCTCAGGATTGATCTGTAATGGCC (double strand) [44 bp dsDNA (cryo-EM)],binding result,[1],binds
same,binding result,FANCD2 WT + FANCI WT,binds
